# In the supplement of paper PMC8728848:
# The other results are listed elsewhere or left out.
# B1: Epf (Streptococcus pyogenes) (protein)
# chain: GDHGPEFNGVMVVKAAEAEELPDDLMNFKGTWEVSADGSSGRFFSKGATDSYVFHLIPAKDVKKPGWREHNEVKDSYIKIDKQSIAARYKTSTTAPYSVAFKVNTKSLIKDHDYKITFEQGQIASGITVDYRIGSAFNKTTDDSFKISDESKYASNVKIEGEEQGFKQREQGDKTISFRTLKEGPMSLVLLSKVEKKPQGDLDVEFKNLKIIDVTNPSQLDKGVAYVGNKNVQLTLKSDDGRTNFEGDEISLFNSRGELLQTVTVTKDQQNPISITLSEDQAKSLKNKEKLKVSIKQKQSKKTSKDFFFEVGIDPKVEAKQKEKLLELDKVKKQIEDSINGDAWLPEKPVDLQGDHGLSAWSHPQFEK
# Tests used:
# Experiment in all cases: glycan array binding signal (z-score within array); higher = stronger binding
# Details in all cases: glycan notation: IUPAC condensed, linker removed
# [1] = biological target: Gal(b1-4)GlcNAc(b1-3)Gal(b1-4)GlcNAc(b1-2)[Gal(b1-4)GlcNAc(b1-3)Gal(b1-4)GlcNAc(b1-6)]Man(a1-6)[Gal(b1-4)GlcNAc(b1-3)Gal(b1-4)GlcNAc(b1-2)Man(a1-3)]Man(b1-4)GlcNAc(b1-4)[Fuc(a1-6)]GlcNAc
# In short: (§1)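 Glycan array data came from 3228 arrays in the Consortium for Functional Glycomics database, and only arrays with an available protein sequence were kept. Glycan names were put into IUPAC-condensed notation, and columns mapping to the same glycan were averaged. The binding signal is a within-array Z-score, averaged across arrays of one protein sequence run at different concentrations or buffers and across linkers. A negative Z-score can be read as non-binding.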
# [2] = biological target: Gal(b1-4)GlcNAc(b1-3)Gal(b1-4)GlcNAc(b1-3)Gal(b1-4)GlcNAc
# In short: as §1
# [3] = biological target: Gal(b1-4)GlcNAc(b1-3)Gal(b1-4)GlcNAc(b1-3)Gal(b1-4)GlcNAc(b1-2)Man(a1-3)[Gal(b1-4)GlcNAc(b1-3)Gal(b1-4)GlcNAc(b1-3)Gal(b1-4)GlcNAc(b1-2)Man(a1-6)]Man(b1-4)GlcNAc(b1-4)GlcNAc
# In short: as §1
# [4] = biological target: Gal(b1-4)GlcNAc(b1-3)Gal(b1-4)GlcNAc(b1-3)Gal(b1-4)GlcNAc(b1-2)Man(a1-3)[Gal(b1-4)GlcNAc(b1-3)Gal(b1-4)GlcNAc(b1-3)Gal(b1-4)GlcNAc(b1-2)Man(a1-6)]Man(b1-4)GlcNAc(b1-4)[Fuc(a1-6)]GlcNAc
# In short: as §1
# [5] = biological target: Gal(b1-4)GlcNAc(b1-3)Gal(b1-4)GlcNAc(b1-3)Gal(b1-4)GlcNAc(b1-2)[Gal(b1-4)GlcNAc(b1-3)Gal(b1-4)GlcNAc(b1-3)Gal(b1-4)GlcNAc(b1-6)]Man(a1-6)[Gal(b1-4)GlcNAc(b1-3)Gal(b1-4)GlcNAc(b1-3)Gal(b1-4)GlcNAc(b1-2)Man(a1-3)]Man(b1-4)GlcNAc(b1-4)[Fuc(a1-6)]GlcNAc
# In short: as §1
# [6] = biological target: Gal(b1-4)GlcNAc(b1-3)Gal(b1-4)GlcNAc(b1-3)Gal(b1-4)GlcNAc(b1-3)Gal(b1-4)GlcNAc(b1-2)Man(a1-3)[Gal(b1-4)GlcNAc(b1-3)Gal(b1-4)GlcNAc(b1-3)Gal(b1-4)GlcNAc(b1-3)Gal(b1-4)GlcNAc(b1-2)Man(a1-6)]Man(b1-4)GlcNAc(b1-4)GlcNAc
# In short: as §1
# [7] = biological target: Gal(b1-4)GlcNAc(b1-3)Gal(b1-4)GlcNAc(b1-3)Gal(b1-4)GlcNAc(b1-3)Gal(b1-4)GlcNAc(b1-2)Man(a1-3)[Gal(b1-4)GlcNAc(b1-3)Gal(b1-4)GlcNAc(b1-3)Gal(b1-4)GlcNAc(b1-3)Gal(b1-4)GlcNAc(b1-2)Man(a1-6)]Man(b1-4)GlcNAc(b1-4)[Fuc(a1-6)]GlcNAc
# In short: as §1
# [8] = biological target: Gal(b1-4)GlcNAc(b1-3)Gal(b1-4)GlcNAc(b1-3)Gal(b1-4)GlcNAc(b1-3)Gal(b1-4)GlcNAc(b1-2)[Gal(b1-4)GlcNAc(b1-3)Gal(b1-4)GlcNAc(b1-3)Gal(b1-4)GlcNAc(b1-3)Gal(b1-4)GlcNAc(b1-6)]Man(a1-6)[Gal(b1-4)GlcNAc(b1-3)Gal(b1-4)GlcNAc(b1-3)Gal(b1-4)GlcNAc(b1-3)Gal(b1-4)GlcNAc(b1-2)Man(a1-3)]Man(b1-4)GlcNAc(b1-4)[Fuc(a1-6)]GlcNAc
# In short: as §1
# [9] = biological target: Gal(b1-4)GlcNAc(b1-3)Gal(b1-4)GlcNAc(b1-3)Gal(b1-4)GlcNAc(b1-3)Gal(b1-4)GlcNAc(b1-3)Gal(b1-4)GlcNAc(b1-2)Man(a1-3)[Gal(b1-4)GlcNAc(b1-3)Gal(b1-4)GlcNAc(b1-3)Gal(b1-4)GlcNAc(b1-3)Gal(b1-4)GlcNAc(b1-3)Gal(b1-4)GlcNAc(b1-2)Man(a1-6)]Man(b1-4)GlcNAc(b1-4)GlcNAc
# In short: as §1
# [10] = biological target: Gal(b1-4)GlcNAc(b1-3)Gal(b1-4)GlcNAc(b1-3)Gal(b1-4)GlcNAc(b1-3)Gal(b1-4)GlcNAc(b1-3)Gal(b1-4)GlcNAc(b1-2)Man(a1-3)[Gal(b1-4)GlcNAc(b1-3)Gal(b1-4)GlcNAc(b1-3)Gal(b1-4)GlcNAc(b1-3)Gal(b1-4)GlcNAc(b1-3)Gal(b1-4)GlcNAc(b1-2)Man(a1-6)]Man(b1-4)GlcNAc(b1-4)[Fuc(a1-6)]GlcNAc
# In short: as §1
# [11] = biological target: Gal(b1-4)GlcNAc(b1-3)Gal(b1-4)GlcNAc(b1-3)Gal(b1-4)GlcNAc(b1-3)Gal(b1-4)GlcNAc(b1-3)Gal(b1-4)GlcNAc(b1-2)[Gal(b1-4)GlcNAc(b1-3)Gal(b1-4)GlcNAc(b1-3)Gal(b1-4)GlcNAc(b1-3)Gal(b1-4)GlcNAc(b1-3)Gal(b1-4)GlcNAc(b1-6)]Man(a1-6)[Gal(b1-4)GlcNAc(b1-3)Gal(b1-4)GlcNAc(b1-3)Gal(b1-4)GlcNAc(b1-3)Gal(b1-4)GlcNAc(b1-3)Gal(b1-4)GlcNAc(b1-2)Man(a1-3)]Man(b1-4)GlcNAc(b1-4)[Fuc(a1-6)]GlcNAc
# In short: as §1
# [12] = biological target: Gal(b1-4)GlcNAc(b1-3)Gal(b1-4)GlcNAc(b1-3)Gal(b1-4)GlcNAc(b1-3)Gal(b1-4)GlcNAc(b1-3)Gal(b1-4)GlcNAc(b1-3)Gal(b1-4)GlcNAc(b1-2)Man(a1-3)[Gal(b1-4)GlcNAc(b1-3)Gal(b1-4)GlcNAc(b1-3)Gal(b1-4)GlcNAc(b1-3)Gal(b1-4)GlcNAc(b1-3)Gal(b1-4)GlcNAc(b1-3)Gal(b1-4)GlcNAc(b1-2)Man(a1-6)]Man(b1-4)GlcNAc(b1-4)GlcNAc
# In short: as §1
# [13] = biological target: Gal(b1-4)GlcNAc(b1-3)Gal(b1-4)GlcNAc(b1-3)GalNAc
# In short: as §1
# [14] = biological target: Gal(b1-4)GlcNAc(b1-3)Gal(b1-4)GlcNAc(b1-3)[Gal(b1-4)GlcNAc(b1-3)Gal(b1-4)GlcNAc(b1-6)]GalNAc
# In short: as §1
# [15] = biological target: Gal(b1-4)GlcNAc(b1-3)Gal(b1-4)GlcNAc(b1-6)[Gal(b1-3)]GalNAc
# In short: as §1
# [16] = biological target: Gal(b1-4)GlcNAc(b1-3)Gal(b1-4)[Fuc(a1-3)]GlcNAc(b1-3)Gal(b1-4)[Fuc(a1-3)]GlcNAc
# In short: as §1
# [17] = biological target: Gal(b1-4)GlcNAc(b1-3)GalNAc
# In short: as §1
# [18] = biological target: Gal(b1-4)GlcNAc(b1-3)[Fuc(a1-3)GlcNAc(b1-6)]Gal(b1-4)Glc
# In short: as §1
# [19] = biological target: Gal(b1-4)GlcNAc(b1-3)[Gal(b1-4)GlcNAc(b1-6)]Gal(b1-4)GlcNAc
# In short: as §1
# [20] = biological target: Gal(b1-4)GlcNAc(b1-3)[GlcNAc(b1-6)]Gal(b1-4)GlcNAc
# In short: as §1
# [21] = biological target: Gal(b1-4)GlcNAc(b1-6)Gal(b1-4)GlcNAc
# In short: as §1
# [22] = biological target: Gal(b1-4)GlcNAc(b1-6)GalNAc
# In short: as §1
# [23] = biological target: Gal(b1-4)GlcNAc(b1-6)[Gal(b1-3)]GalNAc
# In short: as §1
# [24] = biological target: Gal(b1-4)GlcNAc(b1-6)[Gal(b1-4)GlcNAc(b1-3)]GalNAc
# In short: as §1
# Gal(b1-4)GlcNAc6P = biological target: Gal(b1-4)GlcNAc6P
# In short: as §1
# Gal(b1-6)Gal = biological target: Gal(b1-6)Gal
# In short: as §1
# Gal3S(b1-3)GalNAc = biological target: Gal3S(b1-3)GalNAc
# In short: as §1
# Gal3S(b1-3)GlcNAc = biological target: Gal3S(b1-3)GlcNAc
# In short: as §1
# [25] = biological target: Gal3S(b1-3)[Fuc(a1-4)]GlcNAc
# In short: as §1
# Gal3S(b1-4)Glc = biological target: Gal3S(b1-4)Glc
# In short: as §1
# Gal3S(b1-4)Glc6S = biological target: Gal3S(b1-4)Glc6S
# In short: as §1
# Gal3S(b1-4)GlcNAc = biological target: Gal3S(b1-4)GlcNAc
# In short: as §1
# [26] = biological target: Gal3S(b1-4)[Fuc(a1-3)]Glc6S
# In short: as §1
# [27] = biological target: Gal3S(b1-4)[Fuc(a1-3)]GlcNAc
# In short: as §1
# [28] = biological target: Gal3S(b1-4)[Fuc(a1-3)]GlcNAc6S
# In short: as §1
# Gal3S4S(b1-4)GlcNAc = biological target: Gal3S4S(b1-4)GlcNAc
# In short: as §1
# Gal3S6S(b1-4)GlcNAc = biological target: Gal3S6S(b1-4)GlcNAc
# In short: as §1
binder,measurement,setting,value
B1,glycan array binding signal (z-score),[1],0.225
same,glycan array binding signal (z-score),[2],-0.96
same,glycan array binding signal (z-score),[3],0.344
same,glycan array binding signal (z-score),[4],0.144
same,glycan array binding signal (z-score),[5],0.709
same,glycan array binding signal (z-score),[6],0.092
same,glycan array binding signal (z-score),[7],-0.057
same,glycan array binding signal (z-score),[8],0.695
same,glycan array binding signal (z-score),[9],2.53
same,glycan array binding signal (z-score),[10],-1.58
same,glycan array binding signal (z-score),[11],0.896
same,glycan array binding signal (z-score),[12],0.993
same,glycan array binding signal (z-score),[13],-0.499
same,glycan array binding signal (z-score),[14],-0.955
same,glycan array binding signal (z-score),[15],-0.469
same,glycan array binding signal (z-score),[16],-1.31
same,glycan array binding signal (z-score),[17],-0.121
same,glycan array binding signal (z-score),[18],1.19
same,glycan array binding signal (z-score),[19],1.22
same,glycan array binding signal (z-score),[20],0.341
same,glycan array binding signal (z-score),[21],-0.547
same,glycan array binding signal (z-score),[22],-0.413
same,glycan array binding signal (z-score),[23],0.279
same,glycan array binding signal (z-score),[24],-0.178
same,glycan array binding signal (z-score),Gal(b1-4)GlcNAc6P,0.789
same,glycan array binding signal (z-score),Gal(b1-6)Gal,1.65
same,glycan array binding signal (z-score),Gal3S(b1-3)GalNAc,-0.626
same,glycan array binding signal (z-score),Gal3S(b1-3)GlcNAc,0.473
same,glycan array binding signal (z-score),[25],-0.804
same,glycan array binding signal (z-score),Gal3S(b1-4)Glc,1.73
same,glycan array binding signal (z-score),Gal3S(b1-4)Glc6S,-0.159
same,glycan array binding signal (z-score),Gal3S(b1-4)GlcNAc,1.35
same,glycan array binding signal (z-score),[26],1.89
same,glycan array binding signal (z-score),[27],1
same,glycan array binding signal (z-score),[28],-0.754
same,glycan array binding signal (z-score),Gal3S4S(b1-4)GlcNAc,-0.712
same,glycan array binding signal (z-score),Gal3S6S(b1-4)GlcNAc,-1.46

# As a short view, some entries already given.
binder,measurement,setting,value
B1,glycan array binding signal (z-score),[28],-0.754
same,glycan array binding signal (z-score),Gal3S4S(b1-4)GlcNAc,-0.712
